In patent publication US20030027286A1, “Bacterial promoters and methods of use” (priority 2000, published 2003):
At least one structure is not confirmed: it was looked up by name or label, or the drawing left a doubt.

Tested on: E. coli expressing antisense RNA
Assay: Antibiotic sensitivity of E. coli sensitized by IPTG-induced antisense RNA
Format: cell-based, Escherichia coli
Source text: The effectiveness of the above cell-based assay was validated using constructs expressing antisense RNA to the proliferation required E. coli genes rplL, rplJ, and rplW encoding ribosomal proteins L7/L12, L10 and L23 respectively. These proteins are part of the protein synthesis apparatus of the cell and as such are required for proliferation. These constructs were used to test the effect of antisense expression on cell sensitivity to antibiotics known to bind to the ribosome and thereby inhibit protein synthesis. Constructs expressing antisense RNA to several other genes (elaD, visC, yohH, and atpE/B), the products of which are not involved in protein synthesis were used for comparison.
First, pLex5BA (Krause et al. 1997. J. Mol. Biol. 274: 365, the disclosure of which is incorporated herein by reference in its entirety) expression vectors containing antisense constructs to either rplW or to elaD were introduced into separate E. coli cell populations. Vector introduction is a technique well known to those of ordinary skill in the art. The expression vectors of this example contain IPTG inducible promoters that drive the expression of the antisense RNA in the presence of the inducer. However, those skilled in the art will appreciate that other inducible promoters may also be used. Suitable expression vectors are also well known in the art. The E. coli antisense clones to genes encoding ribosomal proteins L7/L12, L10 and L23 were used to test the effect of antisense expression on cell sensitivity to the antibiotics known to bind to these proteins. Expression vectors containing antisense to either the genes encoding L7/L12 and L10 or L23 were introduced into separate E. coli cell populations.
The cell populations were exposed to a range of IPTG concentrations in liquid medium to obtain the growth inhibitory dose curve for each clone. First, seed cultures were grown to a particular turbidity that is measured by the optical density (OD) of the growth solution. The OD of the solution is directly related to the number of bacterial cells contained therein. Subsequently, sixteen 200 ul liquid medium cultures were grown in a 96 well microtiter plate at 37° C. with a range of IPTG concentrations in duplicate two-fold serial dilutions from 1600 uM to 12.5 uM (final concentration). Additionally, control cells were grown in duplicate without IPTG. These cultures were started from equal amounts of cells derived from the same initial seed culture of a clone of interest. The cells were grown for up to 15 hours and the extent of growth was determined by measuring the optical density of the cultures at 600 nm. […]

[1] = E. coli expressing antisense to rplL and rplJ (reduced L7/L12), IPTG

SMILES	sensitivity to antibiotic of antisense-induced cells (E. coli antisense to genes not involved in protein synthesis (AS-atpB/E, AS-visC, AS-elaD, AS-yohH))	sensitivity to antibiotic of antisense-induced cells [1]	sensitivity to antibiotic of antisense-induced cells (E. coli with reduced levels of L23 (AS-rplW), IPTG, FIGS. 13A, 14)
CN(C)[C@@H]1C(O)=C(C(N)=O)C(=O)[C@@]2(O)C(O)=C3C(=O)c4c(O)cccc4[C@@](C)(O)[C@H]3C[C@@H]12 [tetracycline]	did not show the same increased sensitivity	increased sensitivity	increased sensitivity
CC1COc2c(N3CCN(C)CC3)c(F)cc3c(=O)c(C(=O)O)cn1c23 (stereo not shown) [ofloxacin]	–	does not show increased sensitivity	–
